Drawing on publication PMC9454758, this text covers binding for three molecules.

Numbering of substitutions follows the chain as printed. In names and notes the source's numbering stands. Results are given in words; binding and its absence hold for the method and conditions named. Some entries that bind do so weakly or less than the wild type. For part of these data: Where a sequence is shown, tags or fusion partners need not be part of it.

Assay in all cases: western blot of total protein extracts (dimer band); total protein extracts of U251 lines (MLC1-WT, T17D) and primary mouse astrocytes, anti-MLC1 pAb; control, hyposmotic solution, hyposmotic solution with 10 µM KN93
The target of experiment [1] is endogenous MLC1 protein of primary mouse astrocytes (mouse (endogenous in primary astrocytes)) (UniProt Q8VHK5).
Experiment [2] has as its target human recombinant MLC1 wild-type (MLC1-WT), Xpress-tagged, stably overexpressed in U251 astrocytoma cells (human) (UniProt Q15049).
Experiment [3] has as its target MLC1-T17D mutant (phosphorylation mimicking), stably expressed in U251 cells (human) (UniProt Q15049).

B1: endogenous MLC1 protein of primary mouse astrocytes (protein, UniProt Q8VHK5 1-382)
chain: MTREGQFREELGYDRMPTLERGRQDAGRQDPGSYTPDSKPKDLQLSKRLPPCFSYKTWVFSVLMGSCLLVTSGFSLYLGNVFPSEMDYLRCAAGSCIPSAIVSFAVGRRNVSAIPNFQILFVSTFAVTTTCLIWFGCKLILNPSAININFNLILLLLLELLMAATVIISARSSEEPCKKKKGSISDGSNILDEVTFPARVLKSYSVVEVIAGVSAVLGGVIALNVEEAVSGPHLSVTFFWILVACFPSAIASHVTAECPSKCLVEVLIAISSLTSPLLFTASGYLSFSVMRVVEIFKDYPPAIKSYDVLLLLLLLLLLLQGGLNTGTAIQCVSFKVSARLQAASWDPQSCPQERPAGEVVRGPLKEFDKEKAWRAVVVQMAQ
In the case of B1, the binding entry in experiment [1] is on record as “binds”.

B2: human recombinant MLC1 wild-type (MLC1-WT), Xpress-tagged, stably overexpressed in U251 astrocytoma cells (protein, UniProt Q15049 1-377)
chain: MTQEPFREELAYDRMPTLERGRQDPASYAPDAKPSDLQLSKRLPPCFSHKTWVFSVLMGSCLLVTSGFSLYLGNVFPAEMDYLRCAAGSCIPSAIVSFTVSRRNANVIPNFQILFVSTFAVTTTCLIWFGCKLVLNPSAININFNLILLLLLELLMAATVIIAARSSEEDCKKKKGSMSDSANILDEVPFPARVLKSYSVVEVIAGISAVLGGIIALNVDDSVSGPHLSVTFFWILVACFPSAIASHVAAECPSKCLVEVLIAISSLTSPLLFTASGYLSFSIMRIVEMFKDYPPAIKPSYDVLLLLLLLVLLLQAGLNTGTAIQCVRFKVSARLQGASWDTQNGPQERLAGEVARSPLKEFDKEKAWRAVVVQMAQ
Regarding B2, the binding result in experiment [2] is given as “binds”.

B3: MLC1-T17D mutant (phosphorylation mimicking), stably expressed in U251 cells (protein, UniProt Q15049 1-377)
chain: B2 chain with T17D
For B3, the binding entry in experiment [3] was “binds”.
